Experimental data taken from PubChem BioAssay AID1347423 (Functional Genomics Laboratory (NCATS/FGL), 2020).
The campaign covered roughly 52,000 sequences. About 210 (0.4%) were called active.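 The calls were made as follows: active = gene whose silencing raises cell survival under the drug, median off-target-corrected z-score across its silencing RNAs 2 or more; inactive = the rest.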 Some of the results follow.

Test: Resistance to Poly (ADP-Ribose) Polymerase inhibitor: Gene Identification via Genome-wide siRNA Screen
Conditions: mouse BRCA2 R2336H ES cells, olaparib, CellTiter-Glo viability; active compounds read high
Procedure, shortened: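 Mouse BRCA2 R2336H ES cells were reverse-transfected with siRNA (20 nM final), treated at 48 h with 500 nM olaparib, and read by CellTiter-Glo after 72 h. Scores: MAD-based z per siRNA, median per gene, seed off-target correction.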
In the case of GGAAAAACAUUCAAGACUCTT against Solt, the z-score is reported as inactive: -0.194. In the case of GGACGUGGUGAAGUUUUAUTT against Folr2, the z-score is reported as inactive: 0.139. With GGAAAAAAAGGACAUUUCATT against Osmr the z-score was inactive: -1.41. For GGGUGGUGGCAUUAAACUUTT against Stk36, the z-score was inactive: -2.19. For CCAGCUAGUGAUGUCAAAATT against Bri3bp, the z-score was inactive: 2.11. In the case of GGUUAUUGGCACUUUUAGATT against Ect2, the z-score is reported as inactive: 0.319. For GGGUGCAUAUGUUUGAAGCTT against Copb2, the z-score was inactive: 0.319. For UGAGGAGAGUUUCCGAGUGTT against H2-Q6, the z-score was inactive: -1.74. For GGUCGUGUACAAGUACAUATT against Mrps24, the z-score was inactive: 1.69. In the case of GGAAGAGUGACUUGUGCAATT against Slc28a2, the z-score is reported as inactive: -0.162. For CCUCCUCUCUGUUUUCUACTT against Olfr699, the z-score was inactive: 0.928. For GCCAAUACCAGCUUGACAUTT against LOC434448, the z-score was inactive: 0.171. With GGUUCGUCAUACCUCCUCATT against C77080 the z-score was inactive: -2.52. In the case of GGUGGGAACCUGUACUCUATT against Pld2, the z-score is reported as inactive: 1.38. In the case of CCGGUUGCUAGGCUAAACATT against Wdr68, the z-score is reported as inactive: -3.25. In the case of GCUCCGUGUUGACUCAAAATT against Foxg1, the z-score is reported as inactive: -0.133. With “CGCAGUAGCGAAGAAUUACTT against 2310045A20Rik” the z-score was inactive: 1.91. In the case of CGGGUAUCCAAAGUUGUUCTT against Hpxn, the z-score is reported as inactive: 1.54. With “GCUGGCUCUAAUACCCAUCTT against 2310010G13Rik” the z-score was inactive: -0.633. In the case of GGAACAACCUUAUACUACCTT against Rcl1, the z-score is reported as inactive: -1.67. For GGACACACAUGGAAACUGGTT against Nr2f6, the z-score was inactive: -0.934. With “GGGAACAAAUUCAUUGUAUTT against 1810057B09Rik” the z-score was inactive: 0.215. In the case of GGCCGUACUAGAUUUUCUUTT against Olfr695, the z-score is reported as inactive: 2.21. For GCUCAAAUCUAAUAAGGACTT against Cdh3, the z-score was inactive: -0.61. For “GGUGGUUGAACAUAAGACUTT against 2810407K09Rik”, the z-score was inactive: -0.892. With GCUUUCUUGAGAUUACUCATT against Zcchc17 the z-score was inactive: -1.84. With GGCAAUAGCUACACCUUCATT against Csf1r the z-score was inactive: 0.055. In the case of GCAGGUGAAUCAGAUUGCUTT against LOC434448, the z-score is reported as inactive: -0.65. In the case of CCACAAUGACUGGAUUAAGTT against Atp6v1c1, the z-score is reported as inactive: 1.48. For GGACAAGAAGGAAAAGAAATT against Brd4, the z-score was inactive: -3.45. With “GGAGGGAGUCUCUGUUACUTT against 4933435A13Rik” the z-score was inactive: -0.611. With CGACAGAGGAAAACAUAAATT against St13 the z-score was inactive: -0.274. With GGUGGAAGUCUUCAGACAGTT against Itgb4bp the z-score was inactive: -1.65. In the case of “GGCCAAGAGUGUUUCCAAATT against 4930542N07Rik”, the z-score is reported as inactive: -0.254. With GCCCAAGUCCAAAGUGUUGTT against MGC62475 the z-score was inactive: -0.677. For GGGCAUGGACAAAAUUCUCTT against Cct2, the z-score was inactive: 0.163. In the case of GCAAGAAGCCUGCCAAUAUTT against Etd, the z-score is reported as inactive: -1.71. With GCCGCUGUCAAUAAAUGACTT against Phb the z-score was inactive: 1.27. For GGUAGAAAAGCUUCUGAAATT against Ap1g1, the z-score was inactive: 0.717. For GGACAAGAACAAUUGCUAUTT against Gm397, the z-score was inactive: -0.106. For “GCUGUUUUAGUAGAGGUAATT against 2310050B20Rik”, the z-score was inactive: -1.09. With GGGAGGAACUUUGUAUAAUTT against Plpi the z-score was inactive: 0.956. In the case of GGAGUGUAGUAAAUGUACCTT against Ppp1r13b, the z-score is reported as inactive: 0.708. With GCCUCAGAAUACCAGCUCATT against Gnat1 the z-score was inactive: 1.13. For GGGAGGAAAUUAAAUUUCATT against Hif1an, the z-score was inactive: -1.57. For “GCUCUAGAUGUCAACCUGATT against 1700108L22Rik”, the z-score was inactive: 0.41. For GGCUUUCUAUCAAUUUGUGTT against Rnf12, the z-score was inactive: -0.518. In the case of GGUUGACGAAAUGACUAUATT against Adh4, the z-score is reported as inactive: 0.916. With GGAACAUGUUAAAAACCCUTT against Ubtf the z-score was inactive: 0.0149. In the case of GGACACUACGUGCUCAGUATT against Tcl1b5, the z-score is reported as inactive: -1.05. With GGAUGUGACUUCGAGAGCATT against Cxcr4 the z-score was inactive: -0.252. With GGAAAUCUCAGAAAUCAAATT against Pmf1 the z-score was inactive: 0.467. In the case of GCUUGCUCUCUCAGUAGUATT against Olfr133, the z-score is reported as inactive: 0.332. For CGAGAUGUCCCAGAAUCAUTT against Wdr75, the z-score was inactive: -2.75. For “GGAAGCCGAGAAUACAGCATT against 2610034K17Rik”, the z-score was inactive: 0.485. With “GGACAGAGCAUCACAGAAGTT against 9930117H01Rik” the z-score was inactive: -2.15. In the case of “GGAGUACUUCGUGUUCCGGTT against 1200015A19Rik”, the z-score is reported as inactive: 0.909. In the case of “GGAUAAAUCCUCAGAUGAUTT against 1700006D24Rik”, the z-score is reported as inactive: 1.27. With GCCCUUGGCAUUACUGAGATT against Serpine2 the z-score was inactive: 0.387. In the case of CCGCUACCUUAAGCACCUATT against Terf2ip, the z-score is reported as inactive: -2.12. With GGAGUGUGAAGAGAUACAGTT against C9 the z-score was inactive: -1.46. For GGAACAUUGGCAUCACGACTT against Acy1, the z-score was inactive: 1.95. With GCCCAAAGGUUCGUAAGGUTT against Rpl7 the z-score was inactive: -3.18. For GCAACUAUUGUCUAAAUGCTT against Fnbp3, the z-score was inactive: -1.09. In the case of CCAGUUCUUAACAUUGUGUTT against Syap1, the z-score is reported as inactive: 0.388. For GCAAUGGCAUCAACCAUUCTT against Cbfa2t2h, the z-score was inactive: -0.0989. For GUAAAAUGUUCACUAAAGCTT against Olfr1248, the z-score was inactive: 0.0862. For “GGAUGAACAUUCUGGAAAUTT against 2010009L17Rik”, the z-score was inactive: -0.768. For CCACUAACAGCUCAUGUCATT against Rpe65, the z-score was inactive: 0.235. For GGACCUCACAGAUUAUGGGTT against Ebi3, the z-score was inactive: -0.0223. With CGUGAAAAUAGAAAGGUAATT against Rfk the z-score was inactive: -0.814. In the case of GAGAAGAAGCCUAACCUCATT against Ang1, the z-score is reported as inactive: -0.311. In the case of GGUGGACAAGACAAGCAUCTT against Ilvbl, the z-score is reported as inactive: 0.543. For GGUAAUUUUCCAGAGCCAUTT against Tenr, the z-score was inactive: -0.954. For GGCUAGGAGAGUCUCCCUUTT against Rfx1, the z-score was inactive: 0.937. For GGAAAACAAACCACAGCCATT against Tpbpa, the z-score was inactive: -0.94. For GCUGGAUAAGAAUGGCGAUTT against Calb3, the z-score was inactive: 1.07. For “CGAAAAAGACAGGCUUGGATT against 2310032F03Rik”, the z-score was inactive: -2.19. For “GGGUAAACUGUGGAGAAAUTT against B230312A22Rik”, the z-score was inactive: 0.101. For GGAAGCUGCUUUUCUAAAUTT against Il7, the z-score was inactive: 2.06. In the case of “GGAUGCCAAUUUGGCUAAGTT against 4833427G06Rik”, the z-score is reported as inactive: -1.55. For GGAGAAACAGCAAGUAUCUTT against Il21r, the z-score was inactive: -1.56. With CCCACAGUAAAUUCAACGGTT against MGC68323 the z-score was inactive: 0.907. For GGAAGGUAACUGGAAGGAGTT against Snx4, the z-score was inactive: -0.545. With GGCAGCAUUACACUGAAUCTT against Slc36a4 the z-score was inactive: 0.104. With GCAGAUAACUACUGCCACGTT against Pkd1l3 the z-score was inactive: 0.0535. In the case of CCUACGUCAUUUCAGCACCTT against Hc, the z-score is reported as inactive: 1.58. With GCACAUGCAGACAGUUACCTT against Gpr54 the z-score was inactive: -0.487. With GGUAUGCACCUGUAACUCATT against Kcnk1 the z-score was inactive: -0.112. With GGGAUAUCCAAAGUCACGGTT against Capza3 the z-score was inactive: 1.09. In the case of GGAAGAGAAGUUCAUGAGCTT against Gabrr1, the z-score is reported as inactive: -0.585. In the case of GGAAAAAUUAGACCGUGAGTT against Pcdhb4, the z-score is reported as inactive: -0.862. In the case of GUACAUUUGCUGGAGCCUCTT against Hps6, the z-score is reported as inactive: -0.585. For GGUGCUACCUCUAGAUAUUTT against Crlz1, the z-score was inactive: -0.808. In the case of GUGCAAUCCUUCUUCUUCCTT against Olfr166, the z-score is reported as inactive: -2.33. For GGACAACAUAUUCUGAUAATT against Gm1574, the z-score was inactive: 0.0397. With GGCUUCUUUGUCAUAGGAGTT against Olfr353 the z-score was inactive: -0.491. For “GGAGCGAGAAGGUAAAGUCTT against D14Ertd581e”, the z-score was inactive: 0.892. In the case of GGCCGAAUAAUGCAUAUACTT against Ythdf2, the z-score is reported as inactive: 1.07. In the case of GCUCAUGCUCUUAUGUUAGTT against Vamp3, the z-score is reported as inactive: 0.223. With GGAUUGAGAAAAUCUACAUTT against Tnfrsf8 the z-score was inactive: -1.24. With GGCGGUUUCUUUUCAUUGGTT against Nhlh1 the z-score was inactive: -0.598. For GGGCUUCAAACCCACAGAATT against Nova2, the z-score was inactive: -0.523. With GGGAAUCAGCAUACUUCCUTT against Kb37 the z-score was inactive: -0.136. With “AGAACGGAACCAUAGGGAATT against 2310061C15Rik” the z-score was inactive: -1.03.
